Laboratory results published in publication PMC6715661, “Cardiac MLC2 kinase is localized to the Z-disc and interacts with α-actinin2” (Scientific Reports, 2019).

Sequences of proteins named here, by UniProt entry; tags and fusion partners are left off.
UniProt P50462: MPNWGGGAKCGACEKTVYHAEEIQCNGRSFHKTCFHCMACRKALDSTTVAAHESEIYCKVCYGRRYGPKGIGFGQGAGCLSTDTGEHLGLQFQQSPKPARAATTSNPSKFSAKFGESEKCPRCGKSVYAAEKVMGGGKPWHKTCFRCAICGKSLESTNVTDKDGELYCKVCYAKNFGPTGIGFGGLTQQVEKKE
UniProt Q9JI91: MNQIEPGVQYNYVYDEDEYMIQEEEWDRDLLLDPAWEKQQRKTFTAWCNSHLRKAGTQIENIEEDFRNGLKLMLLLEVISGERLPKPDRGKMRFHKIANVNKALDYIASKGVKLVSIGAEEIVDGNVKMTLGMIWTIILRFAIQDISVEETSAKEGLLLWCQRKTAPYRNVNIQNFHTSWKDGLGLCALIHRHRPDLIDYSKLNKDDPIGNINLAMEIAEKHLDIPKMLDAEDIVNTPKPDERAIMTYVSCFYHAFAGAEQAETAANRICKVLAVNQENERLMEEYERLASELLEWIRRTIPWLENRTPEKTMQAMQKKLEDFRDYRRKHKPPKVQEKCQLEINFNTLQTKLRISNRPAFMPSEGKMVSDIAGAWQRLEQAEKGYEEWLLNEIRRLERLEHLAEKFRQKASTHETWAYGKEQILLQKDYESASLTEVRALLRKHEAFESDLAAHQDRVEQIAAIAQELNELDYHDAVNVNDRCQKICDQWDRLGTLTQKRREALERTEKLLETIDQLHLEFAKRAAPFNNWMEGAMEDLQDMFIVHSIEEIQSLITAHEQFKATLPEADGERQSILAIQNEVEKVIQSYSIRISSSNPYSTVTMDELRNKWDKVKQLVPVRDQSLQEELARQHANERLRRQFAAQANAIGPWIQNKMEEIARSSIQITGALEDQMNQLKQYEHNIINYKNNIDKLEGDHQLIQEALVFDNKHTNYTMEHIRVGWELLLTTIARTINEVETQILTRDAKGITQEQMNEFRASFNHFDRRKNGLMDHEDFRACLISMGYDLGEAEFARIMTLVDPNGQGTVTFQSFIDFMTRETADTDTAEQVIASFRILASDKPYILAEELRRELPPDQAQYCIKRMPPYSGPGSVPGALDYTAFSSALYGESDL

Biological target: T1, HA-tagged cMLCK (cardiac-specific myosin light chain kinase) expressed in transgenic mouse hearts (mouse) (UniProt Q3UIZ8)
T1 sequence: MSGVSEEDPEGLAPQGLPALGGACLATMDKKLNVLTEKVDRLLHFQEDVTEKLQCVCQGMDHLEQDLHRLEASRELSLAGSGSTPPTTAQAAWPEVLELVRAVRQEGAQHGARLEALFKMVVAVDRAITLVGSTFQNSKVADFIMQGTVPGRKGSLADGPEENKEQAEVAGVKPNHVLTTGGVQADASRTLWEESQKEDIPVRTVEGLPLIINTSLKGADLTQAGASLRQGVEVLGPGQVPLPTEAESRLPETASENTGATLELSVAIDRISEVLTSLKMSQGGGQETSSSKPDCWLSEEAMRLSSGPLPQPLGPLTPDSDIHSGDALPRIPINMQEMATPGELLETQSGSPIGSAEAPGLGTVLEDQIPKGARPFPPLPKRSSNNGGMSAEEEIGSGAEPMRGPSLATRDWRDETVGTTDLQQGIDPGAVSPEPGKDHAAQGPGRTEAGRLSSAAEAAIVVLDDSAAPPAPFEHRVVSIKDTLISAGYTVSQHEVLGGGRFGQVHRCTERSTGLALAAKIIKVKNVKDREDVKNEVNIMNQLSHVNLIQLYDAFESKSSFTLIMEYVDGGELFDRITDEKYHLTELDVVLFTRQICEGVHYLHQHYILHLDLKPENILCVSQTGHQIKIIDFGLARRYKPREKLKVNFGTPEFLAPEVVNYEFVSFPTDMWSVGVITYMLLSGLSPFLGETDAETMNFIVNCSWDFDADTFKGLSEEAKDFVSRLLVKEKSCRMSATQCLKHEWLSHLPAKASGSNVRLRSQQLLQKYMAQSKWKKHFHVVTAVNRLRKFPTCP
Test: affinity purification with mass spectrometry; hearts of HA-cMLCK transgenic mice perfused with 1% formaldehyde for 10 min at room temperature; heart lysates immunoprecipitated with HA-agarose, in-gel trypsin digest, LC-MS/MS

| binding | Substance |
| --- | --- |
| binds | CSRP3 (cysteine and glycine rich protein 3, MLP), endogenous in mouse heart (from UniProt P50462 1-194) |
| binds | α-actinin2, endogenous in mouse heart (from UniProt Q9JI91 1-894) |

No constants are given. Whether binding was seen depends on the method and setting. In cells and extracts the contact can be indirect. Here binding means that the protein was enriched with, or labelled near, the bait; the list need not be complete. Sequences can lack the tags named with a protein.
